These results are taken from publication doi:10.1101/2020.05.13.094045.

The target of the test is AP_SAP11-like_PM19^Δ40-56-GFP ('Candidatus Phytoplasma mali' strain PM19). The experiment in a line: FRET or BRET. (In general: Bioluminescence resonance energy transfer reports proximity on the nanometre scale.)

These are yes or no findings as the source states them, for the method shown. In cells and extracts the contact can be indirect.

B1: AtTCP4-RFP (protein, UniProt Q8LPR5 1-420)
chain: MSDDQFHHPPPPSSMRHRSTSDAADGGCGEIVEVQGGHIVRSTGRKDRHSKVCTAKGPRDRRVRLSAHTAIQFYDVQDRLGFDRPSKAVDWLIKKAKTSIDELAELPPWNPADAIRLAAANAKPRRTTAKTQISPSPPPPQQQQQQQQLQFGVGFNGGGAEHPSNNESSFLPPSMDSDSIADTIKSFFPVIGSSTEAPSNHNLMHNYHHQHPPDLLSRTNSQNQDLRLSLQSFPDGPPSLLHHQHHHHTSASASEPTLFYGQSNPLGFDTSSWEQQSSEFGRIQRLVAWNSGGGGGATDTGNGGGFLFAPPTPSTTSFQPVLGQSQQLYSQRGPLQSSYSPMIRAWFDPHHHHQSISTDDLNHHHHLPPPVHQSAIPGIGFASGEFSSGFRIPARFQGQEEEQHDGLTHKPSSASSISRH
Turning to B1, the binding entry is on record as “no binding”.
